The results in this text go back to publication PMC3767597.

By UniProt entry, the sequences of proteins in these tests, tags left out.
UniProt Q80U70: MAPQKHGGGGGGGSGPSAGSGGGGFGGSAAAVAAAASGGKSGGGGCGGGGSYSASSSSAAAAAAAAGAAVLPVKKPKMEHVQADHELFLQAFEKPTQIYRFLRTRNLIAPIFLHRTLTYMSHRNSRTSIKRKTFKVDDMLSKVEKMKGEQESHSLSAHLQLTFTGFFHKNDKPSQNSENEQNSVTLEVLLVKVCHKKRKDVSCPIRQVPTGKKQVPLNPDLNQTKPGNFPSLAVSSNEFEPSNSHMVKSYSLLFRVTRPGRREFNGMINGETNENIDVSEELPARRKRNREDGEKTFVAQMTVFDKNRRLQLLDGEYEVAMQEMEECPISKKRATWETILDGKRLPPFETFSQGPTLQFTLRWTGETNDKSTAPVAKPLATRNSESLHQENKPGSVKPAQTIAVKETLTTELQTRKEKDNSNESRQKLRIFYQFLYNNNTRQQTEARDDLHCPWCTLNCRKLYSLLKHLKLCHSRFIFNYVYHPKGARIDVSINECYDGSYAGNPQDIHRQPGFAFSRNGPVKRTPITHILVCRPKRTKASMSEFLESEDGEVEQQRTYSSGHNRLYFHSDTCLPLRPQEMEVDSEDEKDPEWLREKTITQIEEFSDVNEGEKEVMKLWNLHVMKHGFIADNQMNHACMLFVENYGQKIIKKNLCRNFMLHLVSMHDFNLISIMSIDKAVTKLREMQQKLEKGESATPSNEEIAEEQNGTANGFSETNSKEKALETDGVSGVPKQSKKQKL
UniProt Q921E6: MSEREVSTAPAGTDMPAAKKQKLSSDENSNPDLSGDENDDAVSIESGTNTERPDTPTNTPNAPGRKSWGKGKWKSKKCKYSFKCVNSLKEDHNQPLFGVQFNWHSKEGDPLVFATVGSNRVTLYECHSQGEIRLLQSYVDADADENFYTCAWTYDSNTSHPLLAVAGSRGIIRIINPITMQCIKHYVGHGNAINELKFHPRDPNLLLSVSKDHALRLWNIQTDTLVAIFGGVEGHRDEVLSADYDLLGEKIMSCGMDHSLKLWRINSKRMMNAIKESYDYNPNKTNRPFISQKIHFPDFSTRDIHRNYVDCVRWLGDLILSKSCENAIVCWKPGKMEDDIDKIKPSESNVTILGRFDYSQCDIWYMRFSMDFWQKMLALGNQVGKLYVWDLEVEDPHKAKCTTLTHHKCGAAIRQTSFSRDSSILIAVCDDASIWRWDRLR
UniProt Q61188: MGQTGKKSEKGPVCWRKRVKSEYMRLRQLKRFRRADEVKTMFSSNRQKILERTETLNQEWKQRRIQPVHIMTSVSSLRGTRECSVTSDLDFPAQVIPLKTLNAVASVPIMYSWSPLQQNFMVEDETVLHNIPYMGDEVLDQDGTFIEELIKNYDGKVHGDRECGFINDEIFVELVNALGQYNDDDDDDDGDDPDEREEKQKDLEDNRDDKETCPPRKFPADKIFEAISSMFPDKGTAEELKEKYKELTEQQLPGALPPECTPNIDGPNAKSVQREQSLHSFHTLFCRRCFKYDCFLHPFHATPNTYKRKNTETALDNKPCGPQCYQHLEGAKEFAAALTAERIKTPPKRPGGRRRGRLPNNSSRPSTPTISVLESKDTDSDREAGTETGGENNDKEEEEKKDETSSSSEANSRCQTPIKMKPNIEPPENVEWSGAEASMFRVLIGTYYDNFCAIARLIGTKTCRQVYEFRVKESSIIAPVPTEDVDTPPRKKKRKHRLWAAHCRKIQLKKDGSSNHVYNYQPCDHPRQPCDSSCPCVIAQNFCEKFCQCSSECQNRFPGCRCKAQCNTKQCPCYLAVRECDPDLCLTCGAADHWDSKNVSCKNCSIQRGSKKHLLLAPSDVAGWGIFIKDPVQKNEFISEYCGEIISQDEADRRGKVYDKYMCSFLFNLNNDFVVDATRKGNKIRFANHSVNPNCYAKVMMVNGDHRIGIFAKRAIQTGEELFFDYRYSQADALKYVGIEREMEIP

Assay [1] concerns the target SUZ12 (mouse (endogenous in heart)) (UniProt Q80U70). Briefly: co-IP; nuclear pellet of homogenized whole mouse hearts (wild-type; for the PRC2 subunits also Asxl2 -/-) extracted in high salt buffer (50mM HEPES, 300mM NaCl, 10mM NaF, 1mM EDTA, 1% Triton-X, 1mM Na3VO4); IP with antibodies against the protein of interest and Dynabeads Protein G; mock IP with pre-immune serum; Western blot. Background: A western blot detects proteins with antibodies after separation by electrophoresis.

Assay [2] addresses T1, Additional sex combs-like 2 (ASXL2) (mouse (endogenous in heart)) (UniProt Q8BZ32).
T1 sequence: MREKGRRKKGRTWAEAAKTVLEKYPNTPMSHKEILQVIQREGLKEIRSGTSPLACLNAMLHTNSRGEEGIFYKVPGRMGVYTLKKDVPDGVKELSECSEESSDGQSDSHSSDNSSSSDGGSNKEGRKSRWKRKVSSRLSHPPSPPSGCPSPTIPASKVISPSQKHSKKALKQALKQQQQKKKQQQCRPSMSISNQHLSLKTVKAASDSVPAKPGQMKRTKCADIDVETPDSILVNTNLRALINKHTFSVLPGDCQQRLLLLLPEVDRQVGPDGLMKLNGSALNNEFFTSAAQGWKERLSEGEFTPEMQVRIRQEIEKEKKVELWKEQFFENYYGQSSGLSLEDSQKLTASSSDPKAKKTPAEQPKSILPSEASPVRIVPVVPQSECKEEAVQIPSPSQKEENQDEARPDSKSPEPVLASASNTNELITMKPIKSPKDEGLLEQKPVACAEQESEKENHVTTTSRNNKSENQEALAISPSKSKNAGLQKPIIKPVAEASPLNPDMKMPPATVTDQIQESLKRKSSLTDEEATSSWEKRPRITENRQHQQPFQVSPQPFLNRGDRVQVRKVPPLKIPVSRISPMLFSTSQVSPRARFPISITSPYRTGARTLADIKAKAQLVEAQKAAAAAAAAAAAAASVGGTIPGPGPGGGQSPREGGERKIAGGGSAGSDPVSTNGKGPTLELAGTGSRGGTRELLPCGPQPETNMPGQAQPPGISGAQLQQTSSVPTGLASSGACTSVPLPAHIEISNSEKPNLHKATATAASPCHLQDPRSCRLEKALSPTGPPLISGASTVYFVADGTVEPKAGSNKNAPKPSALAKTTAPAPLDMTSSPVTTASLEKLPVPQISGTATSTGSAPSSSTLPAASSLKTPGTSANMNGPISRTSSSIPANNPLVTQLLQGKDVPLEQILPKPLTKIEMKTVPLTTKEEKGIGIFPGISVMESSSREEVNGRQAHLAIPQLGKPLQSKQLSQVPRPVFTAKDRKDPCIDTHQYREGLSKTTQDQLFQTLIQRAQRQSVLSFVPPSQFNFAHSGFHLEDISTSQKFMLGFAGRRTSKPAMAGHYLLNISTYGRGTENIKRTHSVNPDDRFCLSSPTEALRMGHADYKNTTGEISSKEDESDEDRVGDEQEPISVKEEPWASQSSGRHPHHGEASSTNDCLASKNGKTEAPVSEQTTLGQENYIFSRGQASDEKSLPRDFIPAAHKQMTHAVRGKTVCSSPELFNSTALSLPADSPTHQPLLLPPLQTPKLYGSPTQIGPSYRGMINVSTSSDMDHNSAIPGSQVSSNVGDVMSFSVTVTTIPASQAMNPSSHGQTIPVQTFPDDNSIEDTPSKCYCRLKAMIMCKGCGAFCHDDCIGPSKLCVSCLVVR
The assay is described as above.

Results are given in words; binding and its absence hold for the method and conditions named. Binding seen in cells or lysates may run through a third protein. Some results given as binding are weak or reduced against the parent protein; the word gives no strength.

Regarding EED (from UniProt Q921E6 1-441), in assay [1], the binding result is given as “binds”.

Take EZH2 (from UniProt Q61188 1-746): the binding result in assay [2] was “binds”. Same read-out and setting: the entry for SUZ12 (from UniProt Q80U70 1-741) is “binds”.
